Laboratory results reported in US20240197812A1, “Methods of Treating Cardiac Injury” (Proletariat Therapeutics, Inc., priority 2022, published 2024).
“Also recorded” adds a separate entry of the source. Part of at least one peptide drawing is inferred or uncertain, most often the ends.

Legend:
[1] = tested on: critically ill patients with vasodilatory shock; assay: Prospective observational study: catecholamine/vasopressor exposure; type: in vivo, human
[2] = tested on: critically ill patients with vasodilatory shock; assay: Prospective observational study: mortality and length of stay; type: in vivo, human
[3] = tested on: critically ill patients with vasodilatory shock; assay: Prospective observational study, angiotensin II as primary vasopressor: renal outcomes; type: in vivo, human
[4] = tested on: adults with septic or other distributive shock; conditions: at 3 hours; adults hypotensive despite fluid and vasopressor therapy; cited from earlier work

Structure (SMILES): CC[C@H](C)[C@H](NC(=O)[C@H](Cc1ccc(O)cc1)NC(=O)[C@@H](NC(=O)[C@H](CCCNC(=N)N)NC(=O)[C@@H](N)CC(=O)O)C(C)C)C(=O)N[C@@H](Cc1cnc[nH]1)C(=O)N1CCC[C@H]1C(=O)N[C@@H](Cc1ccccc1)C(=O)O [Angiotensin II, Asp-Arg-Val-Tyr-Ile-His-Pro-Phe]
- Time to vasopressor cessation ([1]; in vivo): 45.5 h
- catecholamine exposure after initiation ([1]; over the first 24 hours, most marked in the first 6 hours of therapy): reduction in catecholamine exposure
- Total vasopressin administration ([1]; over the first 7 days): 0.35 IU per patient
- epinephrine received ([1]; over the first 7 days): 12 mcg per patient
- metaraminol administration ([1]; over the first 7 days): 80 mcg per patient
- norepinephrine received ([1]; over the first 7 days): 305 mcg per patient
- 28-day mortality - % ([2]; in vivo): (18) %
- 90-day mortality - % ([2]; in vivo): (22) %
- Days alive and RRT-free at 28 days - mean ([2]; in vivo): 21.3 days
- Days alive and RRT-free at 90 days - mean ([2]; in vivo): 69.8 days
- Days alive at 28 days - mean ([2]; in vivo): 24.4 days
- Days alive at 90 days - mean ([2]; in vivo): 73.8 days
- Hospital mortality - % ([2]; in vivo): (20) %
- ICU mortality - % ([2]; in vivo): (10) %
- Median length of stay in ICU ([2]; in vivo): 3.5 days
- Median length of stay in hospital ([2]; in vivo): 13.8 days
- 28-day mortality - no. ([2]; number of patients): 7
- 90-day mortality - no. ([2]; number of patients): 9
- Hospital mortality - no. ([2]; number of patients): 8
- ICU mortality - no. ([2]; number of patients): 4
- ICU mortality compared to conventional vasopressors ([2]; result in words): significantly lower; also recorded: lower ICU mortality
- Major adverse kidney event at 7 days - % ([3]; MAKE7): (30) %
- Major adverse kidney event at 7 days - % ([3]; MAKE7, listed as angiotensin II): 48%
- Major adverse kidney event at 7 days - no. ([3]; MAKE7, number of patients): 12
- New CRRT - % ([3]; in vivo): (14) %
- New or progressive AKI at day 7 - % ([3]; in vivo): (66) %
- Peak AKI stage at day 7, Nil - % ([3]; in vivo): (34) %
- Peak AKI stage at day 7, Stage 1 - % ([3]; in vivo): (26) %
- Peak AKI stage at day 7, Stage 2 - % ([3]; in vivo): (14) %
- Peak AKI stage at day 7, Stage 3 - % ([3]; in vivo): (26) %
- Time to new CRRT - median ([3]; in vivo): 38 h
- median number of hours between the start of the intervention and the peak creatinine ([3]; median (IQR)): 8.5 (4.5 to 37.5) hours
- New CRRT - no. ([3]; number of patients): 5
- New or progressive AKI at day 7 - no. ([3]; number of patients): 23
- Peak AKI stage at day 7, Nil - no. ([3]; number of patients): 12
- Peak AKI stage at day 7, Stage 1 - no. ([3]; number of patients): 9
- Peak AKI stage at day 7, Stage 2 - no. ([3]; number of patients): 5
- Peak AKI stage at day 7, Stage 3 - no. ([3]; number of patients): 9
- trajectory of serum creatinine level, β coefficient ([3]; over the first 7 days, angiotensin II vs control, 95% CI −24.64 to 30.55): 2.96
- time to liberation from CRRT, SHR ([3]; patients who received CRRT, angiotensin II vs control, 95% CI 0.60 to 3.17): 1.38
- Peak creatinine at day 7 - mean ([3]; primary outcome): 154 µmol/L
- Peak serum creatinine level (median) at day 7 ([3]; subgroup Age <65 years): 136 µmol/L
- Peak serum creatinine level (median) at day 7 ([3]; subgroup Age ≥65 years): 139 µmol/L
- Peak serum creatinine level (median) at day 7 ([3]; subgroup RAAS inhibition No): 158 µmol/L
- Peak serum creatinine level (median) at day 7 ([3]; subgroup RAAS inhibition: ACE inhibitor): 121 µmol/L
- Peak serum creatinine level (median) at day 7 ([3]; subgroup RAAS inhibition: Angiotensin receptor blocker): 125 µmol/L
- Peak serum creatinine level (median) at day 7 ([3]; subgroup Sepsis No): 123 µmol/L
- Peak serum creatinine level (median) at day 7 ([3]; subgroup Sepsis Yes): 140 µmol/L
- patients achieved a MAP ≥75 mmHg or a ≥10 mmHg increase in MAP without change in baseline vasopressor therapy [4]: 70%
